# Data published in PubChem BioAssay AID1671190 (National Center for Advancing Translational Sciences (NCATS), 2021).
# Protein sequences, listed by entry. Tags and fused reporters are not part of them.
# UniProt P18054, whole entry, looked up: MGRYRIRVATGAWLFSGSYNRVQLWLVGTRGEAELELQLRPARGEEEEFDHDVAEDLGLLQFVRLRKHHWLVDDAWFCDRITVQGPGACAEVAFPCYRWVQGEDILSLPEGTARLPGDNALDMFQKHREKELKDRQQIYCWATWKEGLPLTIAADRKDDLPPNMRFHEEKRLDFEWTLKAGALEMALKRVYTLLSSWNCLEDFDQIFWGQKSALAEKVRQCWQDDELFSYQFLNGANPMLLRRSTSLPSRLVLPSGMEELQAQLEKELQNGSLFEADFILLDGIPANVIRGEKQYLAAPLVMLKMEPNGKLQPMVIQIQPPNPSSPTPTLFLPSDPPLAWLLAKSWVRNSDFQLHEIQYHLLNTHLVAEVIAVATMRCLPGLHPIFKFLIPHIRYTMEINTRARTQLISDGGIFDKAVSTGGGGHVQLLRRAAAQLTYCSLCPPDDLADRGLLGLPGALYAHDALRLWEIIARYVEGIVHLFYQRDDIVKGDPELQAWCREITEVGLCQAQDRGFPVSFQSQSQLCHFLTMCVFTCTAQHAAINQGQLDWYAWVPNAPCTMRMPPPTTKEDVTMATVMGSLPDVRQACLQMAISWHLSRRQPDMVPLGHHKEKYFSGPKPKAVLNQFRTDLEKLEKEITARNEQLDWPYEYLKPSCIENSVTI
# Screen size: about 580,000 compounds; about 6,100 (1.1%) were called active. This list was built around the results that the source calls inconclusive (neither active nor inactive); the mix of calls is not that of the screen. Calls come from the whole dose curve; as a rule, active = well fitted inhibition curve with a large enough effect; inconclusive = small, poorly fitted or top-dose-only effect, or another doubt; inactive = no such curve, though single readings can be large or run the other way. Potencies of inconclusive entries are doubtful fits and often do not repeat.
# Molecular target: Polyunsaturated fatty acid lipoxygenase ALOX12 (Homo sapiens) (UniProt P18054)
# Assay: Primary qHTS assay for inhibitors of human arachidonate 12S-lipoxygenase (ALOX12): Round 2
# Details: purified 12hLO, xylenol orange hydroperoxide absorbance; activity change, negative = inhibition: at 108 µM (top of the series) unless noted
# Summary of the method: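 Purified human 12hLO (150 nM final) in 25 mM Hepes, 0.01% Triton X-100, pH 7.0 was preincubated 15 min at room temperature with compound. Then 40 uM arachidonic acid was added, 30 min. Hydroperoxide was read by Fe-XO absorbance ratio 573/405 nm.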
# % is set by controls: 0 for no effect and ±100 for the full control effect; potency is the fitted concentration of half-maximal effect.
Compound,Potency,"activity change, negative = inhibition"
COc1cccc(CN(Cc2ccco2)c2cnc(S(C)(=O)=O)nc2C(=O)Nc2ccccc2)c1,inactive,–
CCCCc1ccc(NC(=S)NCCCOC(C)C)cc1,"inconclusive: 44.7 µM [inhibitor, partial curve, poor fit]",–
Cc1ccc(C(=O)NCc2ccco2)o1,inactive,–
COCC(=O)N1C[C@@H](COc2cccnc2)[C@H](c2ccccn2)C1,"inconclusive: 17.8 µM [inhibitor, full curve, poor fit]",–
CCOC(=O)c1c(-c2ccccc2)csc1NC(=O)c1cc(-c2ccc(Cl)cc2)on1,inactive,–
O=C1C(=C2SCCS2)CCc2ccccc21,"inconclusive: 44.7 µM [inhibitor, partial curve, poor fit]",–
Cc1c(CC(=O)NCCc2ccc(Cl)cc2)c(=O)oc2c(C)c3occ(C(C)(C)C)c3cc12,–,inconclusive: -32.9% [inhibitor]
CCCn1c(C)cnc1CC1CCN(C(=O)CCOC)CC1,"inconclusive: 25.1 µM [inhibitor, partial curve, poor fit]",–
CCCOc1ccc(/C=C2/C(=O)ON=C2C)cc1OCC,"inconclusive: 4.47 µM [inhibitor, full curve, poor fit]",–
Cc1cc(C)c(OCCN(C)C)c(Cl)c1,"inconclusive: 0.501 µM [inhibitor, full curve, poor fit]",–
CC1(c2ccccc2)N(Cc2ccccc2C#N)C(=O)OC12CCN(C(=O)CCc1cccnc1)CC2 (stereo not given),inactive,–
FC(F)(F)c1cc(-c2cccs2)nc(NC2CCCCC2)n1,"inconclusive: 126 µM [inhibitor, single point]",–
COC(=O)c1ccc2c(=O)n(CCCCCC(=O)N3CCN(c4ccc(OC)cc4)CC3)c(=O)[nH]c2c1,"inconclusive: 50.1 µM [inhibitor, partial curve, poor fit]",–
O=C(NC1CCCCC1)N[C@H]1CCN2C(=O)c3ccc(Cl)cc3NC(=O)[C@H]12,"inconclusive: 35.5 µM [inhibitor, partial curve]",–
COc1ccccc1C(CNC(=O)C1CCN(S(=O)(=O)c2ccc3c(c2)CCC3)CC1)N(C)C (stereo not given),inactive,–
Cn1c(=O)c2c(ncn2CC(=O)Nc2ccc(Cl)cc2)n(C)c1=O,"inconclusive: 50.1 µM [inhibitor, partial curve, poor fit]",–
COc1ccc(/C=C2\SC(=S)N(CCCC(=O)Nc3cc(C)on3)C2=O)cc1OC,inactive,–
COC(=O)C1=C(C)N(Cc2cccc(C(F)(F)F)c2)C(=NCc2ccc3c(c2)OCO3)NC1c1ccccc1 (stereo not given),"inconclusive: 70.8 µM [inhibitor, partial curve, poor fit]",–
COc1ccc(NC(=O)c2ccc(NC(=O)CSc3nc(N)cc(=O)[nH]3)cc2)cc1,inactive,–
Cc1onc(-c2ccccc2Cl)c1C(=O)Nc1sc2c(c1C#N)CCC2,"inconclusive: 50.1 µM [inhibitor, partial curve, poor fit]",–
Cc1ccc(-n2cnnn2)cc1NC(=O)c1cc(Cl)ccn1,"inconclusive: 39.8 µM [inhibitor, partial curve, poor fit]",–
Cc1cc2nc(-c3ccc(F)cc3)c(Cc3ccsc3)n2c(C)c1Br,"inconclusive: 28.2 µM [inhibitor, single point]",–

Compound,Potency,"activity change, negative = inhibition"
Cc1noc(-c2cn(C3CCN(C(=O)c4cccc(Cl)c4)CC3)nn2)n1,inactive,–
COc1ccc2nc3sc(C(=O)NCCN4CCc5ccccc5C4)cc3cc2c1,inactive,–
O=S(=O)(Nc1ccccc1)c1ccc(S(=O)(=O)N2CCCC2)cc1,"inconclusive: 112 µM [inhibitor, single point]",–
COc1ccc(NC(=O)CN2CCCN(S(=O)(=O)c3ccc(F)cc3)CC2)cc1,"inconclusive: 44.7 µM [inhibitor, partial curve, poor fit]",–
COc1ccc(NC(=O)/C=C/c2cccc(Br)c2)cn1,"inconclusive: 89.1 µM [inhibitor, partial curve, poor fit]",–
O=C1CCCc2c1cc(C(=O)NC1CCSC1=O)c(=O)n2-c1ccccc1 (stereo not given),"inconclusive: 56.2 µM [inhibitor, partial curve, poor fit]",–
CC(=O)c1ccc(N2CCN(C(=O)COc3ccc(F)cc3)CC2)c(F)c1,inactive,–
CCOc1ccc(CNC(=O)c2ccc(Sc3ccc(Cl)cc3)c(NC(C)=O)c2)cc1OC,"inconclusive: 50.1 µM [inhibitor, partial curve, poor fit]",–
Cc1ccc(CNC(=O)c2ccccc2NS(C)(=O)=O)cc1,inactive,–
CCOC(=O)c1csc(NC(=O)CN2CCOCC2)n1,"inconclusive: 8.91 µM [inhibitor, full curve, poor fit]",–
CCOC(=O)c1c(NC(=O)CCCN2CCCCC2)sc2c1CC(C)(C)OC2,"inconclusive: 112 µM [inhibitor, partial curve, poor fit]",–
C=CCO[C@@H]1CCN2C(=O)c3cc(-c4ccc(F)cc4F)ccc3NC(=O)[C@H]12,"inconclusive: 39.8 µM [inhibitor, partial curve]",–
COC(=O)C1=C(C)NC(C)=C(C(=O)OCCN2CCN(C(c3ccccc3)c3ccccc3)CC2)C1c1cccc([N+](=O)[O-])c1 (stereo not given),inactive,–
CC(=O)N1C[C@@H](CO)[C@@H]2C[C@H]1c1ccccc1N2C,inactive,–
OC(c1ccccc1)c1nc(-c2cnc3ccccc3c2)cs1 (stereo not given),"inconclusive: 56.2 µM [inhibitor, partial curve, poor fit]",–
CC(=O)N1CC[n+]2c(-c3ccc(Cl)cc3Cl)csc21,"inconclusive: 50.1 µM [inhibitor, partial curve, poor fit]",–
O=C(Nc1cccnc1-n1cccn1)c1cccc(NC(=O)c2cccs2)c1,"inconclusive: 3.98 µM [inhibitor, full curve, poor fit]",–
COC(C[C@@H](O)CC(=O)COCc1ccccc1)OC,"inconclusive: 3.55 µM [inhibitor, full curve, poor fit]",–
O=C(c1ccc2c(c1)OCO2)N1CCCC(n2cc(-c3nc(-c4ccccc4)no3)nn2)C1 (stereo not given),"inconclusive: 17.8 µM [inhibitor, full curve]",–
COc1ccc2c(c1)CC/C(=C\c1ccccc1Br)C2=O,"inconclusive: 50.1 µM [inhibitor, partial curve, poor fit]",–
O=C(NNC(=O)c1cc(O)c(O)c(O)c1)NC1CCCCC1,"inconclusive: 5.01 µM [inhibitor, single point]",–
Cc1ccccc1[C@@H]1CN(C(=O)CN(C)C2CCN(C)CC2)C[C@H]1C(=O)O,"inconclusive: 0.708 µM [inhibitor, partial curve, poor fit]",–

Compound,Potency,"activity change, negative = inhibition"
Cc1c(-c2ccccc2F)[nH]c2ccc(CNC(=O)C3CCCN(C(N)=O)C3)cc12 (stereo not given),inactive,–
COc1ccc(C(=O)/C=C/c2ccsc2)cc1CSCC(=O)O,"inconclusive: 44.7 µM [inhibitor, partial curve, poor fit]",–
O=C(NCc1cccc(F)c1)c1cccc(NC(=O)c2nsc3ccccc23)c1,inactive,–
CC(=O)Nc1cccc(-c2cnc3[nH]cc(CC(=O)N4CCOCC4)c3c2)c1,inactive,–
C/C=C/c1ccc(OCC(O)CN2CCCCC2CC)c(OC)c1 (stereo not given),inactive,–
C=CCN(c1ccccc1C(=O)NCC(=O)O)S(=O)(=O)c1ccccc1C,"inconclusive: 100 µM [inhibitor, single point]",–
O=C(NNC(=O)c1ccccc1F)c1cccc(S(=O)(=O)N2CCc3ccccc32)c1,inactive,–
CCSc1ccccc1C(=O)NC(C)(C)C,inactive,–
CCc1ccc(Nc2nc(N)nc(CSc3nc4ccccc4s3)n2)cc1,"inconclusive: 63.1 µM [inhibitor, partial curve, poor fit]",–
CC(C)C#Cc1cnc2c(c1)C(=O)N([C@@H](C)CO)C[C@@H](C)[C@H](CN(C)Cc1cccc(F)c1)O2,"inconclusive: 44.7 µM [inhibitor, partial curve, poor fit]",–
CN(CC(=O)Nc1ccccc1Cl)CC(=O)N(CCC#N)c1ccccc1F,"inconclusive: 0.251 µM [inhibitor, full curve]",–
Cc1cn2nnc(C(=O)NCCC3=CCCCC3)c2c(=O)[nH]1,"inconclusive: 44.7 µM [inhibitor, partial curve]",–
CC(C)N(C(=O)Nc1ccc2nsnc2c1)C(C)C,"inconclusive: 35.5 µM [inhibitor, partial curve]",–
Cc1ccccc1CS(=O)(=O)c1ncc(Cl)c(C(=O)Nc2ccc(F)cc2)n1,"inconclusive: 56.2 µM [inhibitor, partial curve, poor fit]",–
Cc1cc(C)[n+]2n1C(=O)C(c1ccccc1)=C2[O-],inactive,–
O=c1[nH]cc(Cc2ccccc2)c(=O)[nH]1,"inconclusive: 35.5 µM [inhibitor, partial curve, poor fit]",–
Cc1nc(CCNS(=O)(=O)c2c(C)noc2C)no1,"inconclusive: 7.08 µM [inhibitor, full curve, poor fit]",–
CC1CCN([C@@H]2[C@H](O)[C@H](CO)O[C@@H]2CNC(=O)c2cccc(F)c2)CC1,"inconclusive: 22.4 µM [inhibitor, full curve, poor fit]",–
Cc1noc(C)c1NC(=O)N(C)C[C@H]1OCCCC[C@@H](C)Oc2ccc(NS(=O)(=O)c3ccccc3)cc2C(=O)N([C@H](C)CO)C[C@@H]1C,"inconclusive: 100 µM [inhibitor, single point]",–
O=C(NC(C1CC1)C1CC1)c1cc(Cl)nc(Cl)c1,inactive,–
CCOc1cccc(CNC(=O)[C@H]2CCC[C@H]2NC(=O)c2ccc(OC)nc2)c1,inactive,–

# Entries from the list above with an aryl thioether with sulfur outside any ring (4):
Compound,Potency,"activity change, negative = inhibition"
COc1ccc(NC(=O)c2ccc(NC(=O)CSc3nc(N)cc(=O)[nH]3)cc2)cc1,inactive,–
CCOc1ccc(CNC(=O)c2ccc(Sc3ccc(Cl)cc3)c(NC(C)=O)c2)cc1OC,"inconclusive: 50.1 µM [inhibitor, partial curve, poor fit]",–
CCSc1ccccc1C(=O)NC(C)(C)C,inactive,–
CCc1ccc(Nc2nc(N)nc(CSc3nc4ccccc4s3)n2)cc1,"inconclusive: 63.1 µM [inhibitor, partial curve, poor fit]",–
